Laboratory results: paper PMC3642079
Results are given in words; binding and its absence hold for the method and conditions named. Binding seen in cells or lysates may run through a third protein. A yes stands for co-enrichment or nearness to the bait. Other partners may have been found.

Chains of the proteins cited; added tags and fusions are not shown.
UniProt P03204: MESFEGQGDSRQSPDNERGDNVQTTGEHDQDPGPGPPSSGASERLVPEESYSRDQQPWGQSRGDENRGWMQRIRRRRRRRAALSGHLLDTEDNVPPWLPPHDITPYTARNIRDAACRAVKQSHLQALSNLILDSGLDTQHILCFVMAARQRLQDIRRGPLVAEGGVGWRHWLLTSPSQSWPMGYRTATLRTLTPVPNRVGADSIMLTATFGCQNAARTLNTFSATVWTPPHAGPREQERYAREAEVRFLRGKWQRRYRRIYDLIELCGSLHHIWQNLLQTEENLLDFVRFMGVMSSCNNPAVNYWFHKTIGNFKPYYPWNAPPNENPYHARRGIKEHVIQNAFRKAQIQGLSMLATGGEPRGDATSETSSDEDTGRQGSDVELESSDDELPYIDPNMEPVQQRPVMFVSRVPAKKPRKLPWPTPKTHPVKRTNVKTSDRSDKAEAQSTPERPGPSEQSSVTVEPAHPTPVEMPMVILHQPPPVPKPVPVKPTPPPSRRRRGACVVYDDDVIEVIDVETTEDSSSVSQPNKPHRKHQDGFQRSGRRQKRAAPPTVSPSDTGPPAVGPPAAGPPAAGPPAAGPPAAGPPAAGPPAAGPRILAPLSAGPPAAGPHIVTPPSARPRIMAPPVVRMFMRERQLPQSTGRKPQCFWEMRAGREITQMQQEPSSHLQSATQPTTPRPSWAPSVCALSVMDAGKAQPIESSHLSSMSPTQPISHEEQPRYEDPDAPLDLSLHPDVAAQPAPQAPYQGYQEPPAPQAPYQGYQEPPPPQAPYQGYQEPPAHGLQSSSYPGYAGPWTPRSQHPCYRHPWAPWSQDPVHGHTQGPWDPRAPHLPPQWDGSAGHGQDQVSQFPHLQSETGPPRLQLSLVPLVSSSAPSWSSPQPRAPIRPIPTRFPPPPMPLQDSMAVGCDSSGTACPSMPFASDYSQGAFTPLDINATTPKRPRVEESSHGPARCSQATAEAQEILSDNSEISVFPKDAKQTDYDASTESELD

B1: endogenous IRF4 (protein, UniProt Q15306 1-451)
chain: MNLEGGGRGGEFGMSAVSCGNGKLRQWLIDQIDSGKYPGLVWENEEKSIFRIPWKHAGKQDYNREEDAALFKAWALFKGKFREGIDKPDPPTWKTRLRCALNKSNDFEELVERSQLDISDPYKVYRIVPEGAKKGAKQLTLEDPQMSMSHPYTMTTPYPSLPAQQVHNYMMPPLDRSWRDYVPDQPHPEIPYQCPMTFGPRGHHWQGPACENGCQVTGTFYACAPPESQAPGVPTEPSIRSAEALAFSDCRLHICLYYREILVKELTTSSPEGCRISHGHTYDASNLDQVLFPYPEDNGQRKNIEKLLSHLERGVVLWMAPDGLYAKRLCQSRIYWDGPLALCNDRPNKLERDQTCKLFDTQQFLSELQAFAHHGRSLPRFQVTLCFGEEFPDPQRQRKLITAHVEPLLARQLYYFAQQNSGHFLRGYDLPEHISNPEDYHRSIRHSSIQE
B2: endogenous IRF8 (protein, UniProt Q02556 1-426)
chain: MCDRNGGRRLRQWLIEQIDSSMYPGLIWENEEKSMFRIPWKHAGKQDYNQEVDASIFKAWAVFKGKFKEGDKAEPATWKTRLRCALNKSPDFEEVTDRSQLDISEPYKVYRIVPEEEQKCKLGVATAGCVNEVTEMECGRSEIDELIKEPSVDDYMGMIKRSPSPPEACRSQLLPDWWAQQPSTGVPLVTGYTTYDAHHSAFSQMVISFYYGGKLVGQATTTCPEGCRLSLSQPGLPGTKLYGPEGLELVRFPPADAIPSERQRQVTRKLFGHLERGVLLHSSRQGVFVKRLCQGRVFCSGNAVVCKGRPNKLERDEVVQVFDTSQFFRELQQFYNSQGRLPDGRVVLCFGEEFPDMAPLRSKLILVQIEQLYVRQLAEEAGKSCGAGSVMQAPEEPPPDQVFRMFPDICASHQRSFFRENQQITV

Biological target: EBNA3C expressed in EBV-transformed lymphoblastoid cell lines LCL1 and LCL2 (Epstein-Barr virus) (UniProt P03204)
Test: affinity purification with mass spectrometry

Row | Binder | binding
1 | B1 | binds
2 | B2 | binds
